# Results reported in PubChem BioAssay AID2685 (National Center for Advancing Translational Sciences (NCATS), 2010).
# The other results are listed elsewhere or left out. These are further read-outs of the screen, such as a control signal, another cell line or another target. No call is given for them. Most of these compounds were active or inconclusive in the main read-out, so they are no random draw. Words in brackets tell the shape of the fitted curve; partial curves, single points and poor fits give uncertain potencies.
# Test: qHTS Assay for Lipid Storage Modulators in Drosophila S3 Cells;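 as to cell number change: cells counted by Cell Tracker Red CMTPX staining in the red channel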
# Details: BODIPY lipid droplet fluorescence, 18-24 h; for cell number change: measured here: cell count max response, cells fed with added oleic acid
# How it was run: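 Drosophila S3 cells got compounds at several concentrations plus oleic acid (400 uM solution). Laser-scanning cytometry with 488 nm excitation read lipid droplets at 500-530 nm and cells at 575-640 nm. Percent activity was relative to 20 uM Triacsin C.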
# [1] = measured here: lipid fluorescence (Fed channel) AC50, cells fed with added oleic acid
# [2] = measured here: cell number channel AC50, cells fed with added oleic acid
Structure (SMILES),cell number change [%],AC50 [1],AC50 [2]
COc1ccc(CCC(=O)Nc2ccc3c(c2)OCO3)cc1OC,-3.91,"6.51 µM [rising, single point]",–
COCCNC(=O)c1cccc(OC2CCN(Cc3ccccc3OC(F)F)CC2)c1,4.23,"1.03 µM [rising, full curve, poor fit]",–
COc1cccc(NC(=O)CN(C)C(=O)c2ccc3c(c2)C(=O)N(CCC(C)C)C3=O)c1,-1.81,"0.731 µM [rising, full curve, poor fit]",–
COc1cccc(CN2CCN(C(=O)c3ccc(-c4ccccc4)cc3)CC2)c1,36.8,"4.11 µM [rising, single point]","4.11 µM [rising, full curve]"
COc1ccc(C(=O)N2CCOC2CNC(=O)C(=O)NCc2ccc3c(c2)OCO3)cc1 (centres undefined),22.2,"14.6 µM [rising, partial curve]","0.58 µM [rising, full curve, poor fit]"
O=S(=O)(Cc1ccccc1)N1CCN(Cc2ccc(F)cc2Cl)CC1,8.8,–,–
Cc1[nH]n(-c2ccc(Cl)cc2)c(=O)c1C=NC12CN3CN(CN(C3)C1)C2,-61.4,"5.17 µM [falling, partial curve]","3.66 µM [falling, full curve]"
COc1ccc(OCc2cc(C(=O)NCCc3ccccc3)no2)c(Cl)c1,26.9,–,–
COC(=O)C1=CN(Cc2ccc(OC)cc2)C=C(C(=O)OC)C1c1ccc(O)c(OC)c1,-24.9,–,–
O=C(N/N=C1\CCCc2ccccc21)c1ccccc1Cl,30.8,"16.4 µM [rising, partial curve, poor fit]","0.517 µM [rising, full curve, poor fit]"
CCCOc1cccc(C(=O)Nc2nnn(CCC)n2)c1,-10.5,"0.146 µM [falling, full curve, poor fit]",–
O=C(Cc1ccccc1)Nc1ccc(C(=O)NCc2ccccc2)cc1,46.6,–,"29.1 µM [rising, single point]"
Cc1ccc2nc3cc([N+](=O)[O-])cc([N+](=O)[O-])c3cc2c1,-12,"29.1 µM [falling, single point]",–
CCOc1ccc(C(=O)Nc2cccc3nsnc23)cc1[N+](=O)[O-],-5.11,–,–
CN(C)CCC(=O)NCC1OCCc2ccccc21 (centres undefined),9.15,"6.51 µM [falling, partial curve, poor fit]",–
COc1ccc(N2C(=O)CC(N(CCc3ccccc3)C(=O)c3ccccc3)C2=O)cc1 (centres undefined),-14.5,–,–
COc1cccc(NC(=O)Cn2cnc3c(oc4nc5c(cc43)CCCC5)c2=O)c1,33.4,–,"29.1 µM [rising, single point]"
O=C(Nc1cccnc1)C1CC(=O)N(c2ccc(F)cc2)C1 (centres undefined),10.5,–,"0.13 µM [falling, partial curve, poor fit]"
O=c1c(Cl)c(O)c2cccc3c4ccccc4n1c23,20.1,"0.13 µM [rising, full curve, poor fit]",–
Cc1ccc(NC2CCCN(C(=O)c3cccc4nccnc34)C2)cc1C (centres undefined),26.2,–,–
O=C1/C(=N\O)Cc2ccccc21,–,"0.13 µM [rising, full curve]","0.092 µM [rising, full curve, poor fit]"

Structure (SMILES),cell number change [%],AC50 [1],AC50 [2]
Cc1ccc(CSCCNC(=O)c2ccccc2)cc1,39.8,"4.11 µM [rising, full curve]","3.66 µM [rising, full curve, poor fit]"
O=C(COC(=O)C1CCN(c2ccc(C(F)(F)F)cn2)CC1)Nc1cc(F)ccc1F,-9.94,"11.6 µM [rising, partial curve, poor fit]",–
C/C=C\C(=O)Nc1cccc(C2=NOC3(C2)C[C@@H](C(N)=O)N(C(=O)COc2ccc(Cl)cc2)C3)c1 (some centres undefined),13.7,"0.58 µM [rising, full curve, poor fit]",–
OCc1nnn(-c2ccccc2)c1CO,-41.5,"29.1 µM [falling, single point]","29.1 µM [falling, single point]"
COc1ccc(NC(=O)[C@@H](NC(N)=O)C(C)C)cc1Cl,-9.49,"9.2 µM [falling, partial curve, poor fit]",–
COCCCNC(=O)c1ccc(CS(=O)(=O)c2ccc(OC)cc2)o1,–,"6.51 µM [rising, single point]",–
CC(C)(C)OC(=O)N[C@@H](Cc1c[nH]c2ccccc12)c1nnc(SCC(N)=O)o1,0.762,"5.17 µM [falling, partial curve, poor fit]","6.51 µM [falling, single point]"
COc1ccc(N(C(=O)c2snc(C(N)=O)c2N)C(C(=O)NC2CCCC2)c2ccco2)cc1 (centres undefined),20.5,–,–
Cc1ccc2c(SCC(=O)NCc3ccco3)nc(-c3ccc(F)cc3)nc2c1,19,–,"0.231 µM [rising, full curve, poor fit]"
CCCCCc1nnc(N)s1,-63.3,–,"20.6 µM [falling, partial curve, poor fit]"
Cc1ccc(CN2CC(C(=O)O)CC2=O)cc1 (centres undefined),-6.83,"6.51 µM [falling, single point]",–
CCCn1c(N2CCC(Cc3ccccc3)CC2)nc2c1c(=O)[nH]c(=O)n2C,-35,"4.11 µM [rising, single point]","16.4 µM [falling, single point]"
COc1ccc(OC)c(CN2CCCC(CO)C2)c1 (centres undefined),-106,–,"29.1 µM [falling, single point]"
Cc1cccc(-n2cnc3cc([N+](=O)[O-])ccc32)c1,1.05,"0.291 µM [rising, full curve]",–
O=C(CCC1CCCCC1)Nc1ccccc1C(=O)N1CCOCC1,-23.8,"5.17 µM [falling, partial curve]",–
Cc1ccc(OCCCC(=O)Nc2ccc(Br)cc2)cc1,9.22,"0.326 µM [falling, partial curve, poor fit]",–
O=S(=O)(c1ccc(-c2ccccc2)cc1)N1CCCC1,-24,–,–
CC1=C(C)CC(C(=O)NCCc2ccc(F)cc2)C(C(=O)O)C1 (centres undefined),14.5,"29.1 µM [rising, single point]",–
COc1ccccc1N=C1SC(C(=O)Nc2cccc(Cl)c2Cl)C(N)=C1C(N)=O (centres undefined),-18.5,"2.31 µM [rising, single point]",–
CC(OC(=O)c1cccs1)C(=O)NC1CCCCC1C (centres undefined),0.184,"1.03 µM [rising, full curve, poor fit]",–
COc1ccc(NS(=O)(=O)c2cc(NC(=O)c3ccc(=O)[nH]n3)ccc2N2CCOCC2)cc1,5.95,–,–

# Reformatted with bars between the fields: entries from further up.
Structure (SMILES) | cell number change [%] | AC50 [1] | AC50 [2]
Cc1ccc2c(SCC(=O)NCc3ccco3)nc(-c3ccc(F)cc3)nc2c1 | 19 | – | 0.231 µM [rising, full curve, poor fit]
Cc1cccc(-n2cnc3cc([N+](=O)[O-])ccc32)c1 | 1.05 | 0.291 µM [rising, full curve] | –
Cc1ccc(OCCCC(=O)Nc2ccc(Br)cc2)cc1 | 9.22 | 0.326 µM [falling, partial curve, poor fit] | –
O=S(=O)(c1ccc(-c2ccccc2)cc1)N1CCCC1 | -24 | – | –
COc1ccccc1N=C1SC(C(=O)Nc2cccc(Cl)c2Cl)C(N)=C1C(N)=O (centres undefined) | -18.5 | 2.31 µM [rising, single point] | –

# (cont.)

Structure (SMILES),cell number change [%],AC50 [1],AC50 [2]
Cc1ccc(/C=N/NC(=S)NCCc2ccccc2)s1,60.2,–,"20.6 µM [rising, single point]"
O=C(CN1CCCCCC1)Nc1ccc(Cl)cn1,-0.529,–,–
O=C(Nc1ccc(Cl)c(Cl)c1)OCc1cncs1,34.3,"2.31 µM [rising, partial curve]","1.84 µM [rising, partial curve, poor fit]"
CCn1c(-c2cc(-c3ccc(C)cc3)nc3ccccc23)n[nH]c1=S,-9.04,–,"2.91 µM [rising, single point]"
CC(=O)N/N=C/c1ccc(OCCOc2ccc(Br)cc2)cc1,27.3,"5.17 µM [rising, full curve]",–
CC(C)C(OC(=O)c1nsc(Cl)c1Cl)C(=O)NCc1ccccc1 (centres undefined),9.01,–,–
Cc1cccc2cc(C#N)c(SCC(=O)NCc3cccs3)nc12,37.9,–,"1.46 µM [rising, full curve]"
O=C(NC(Cc1c[nH]c2ccccc12)c1nnc2n1CCCCC2)c1ccccc1Cl (centres undefined),1.99,"1.3 µM [rising, full curve]",–
O=C(N/N=C/c1ccco1)c1cc(-c2ccc(Br)s2)[nH]n1,-18.2,"4.11 µM [falling, full curve]",–
Cn1cnnc1SCC(=O)c1ccc2c(c1)OCO2,–,"2.31 µM [rising, partial curve, poor fit]",–
Cc1ccc(S(=O)(=O)N[C@@H](Cc2ccccc2)C(=O)CCl)cc1,-38.2,"1.64 µM [falling, partial curve]","16.4 µM [falling, single point]"
O=C1c2ccccc2NC(c2ccc(-c3cccc(Cl)c3)o2)N1O (centres undefined),-15.3,–,–
CC(Nc1ncnc2sccc12)c1ccccc1 (centres undefined),10.8,"0.82 µM [falling, full curve]",–
CC(C)c1nc(SCC(=O)Nc2nccs2)c2ccccc2n1,-16.7,"29.1 µM [falling, single point]",–
O=C1c2ccccc2C(=O)N1CC(=O)N1c2ccccc2CCc2ccccc21,163,–,–
Cc1ccc(NC(=O)CN2C(=O)S/C(=C\c3ccc(C(=O)O)cc3)C2=O)cc1,10.3,"8.2 µM [rising, partial curve]",–
COc1ccc(CCNC(=O)c2cccc(S(=O)(=O)N3CCc4ccccc4C3)c2)cc1,30.3,"4.11 µM [rising, partial curve, poor fit]","14.6 µM [rising, single point]"
O=C1c2ccccc2COc2ccc(O)cc21,8.89,"0.0731 µM [falling, full curve, poor fit]",–
O=C(Nc1ccccc1N1CCOCC1)c1ccccc1NS(=O)(=O)c1ccc(F)cc1,34.7,"3.26 µM [rising, partial curve]","3.26 µM [rising, partial curve]"
